Results are given in words; binding and its absence hold for the method and conditions named. Binding seen in cells or lysates may run through a third protein. Here binding means that the protein was enriched with, or labelled near, the bait; the list need not be complete. No binding means not detected with the bait.
Target: EGFP-TEV-sNASP (human) (UniProt P49321)
Test: affinity purification with mass spectrometry; GFP-Trap pull-down of eGFP-sNASP from HEK293-F, TEV release, 1D native gel; bands cut out, in-gel digestion, LC-MS/MS

Row | binding | Binder
1 | binds | UBR7 (protein, UniProt Q8N806 1-425) MAGAEGAAGRQSELEPVVSLVDVLEEDEELENEACAVLGGSDSEKCSYSQGSVKRQALYACSTCTPEGEEPAGICLACSYECHGSHKLFELYTKRNFRCDCGNSKFKNLECKLLPDKAKVNSGNKYNDNFFGLYCICKRPYPDPEDEIPDEMIQCVVCEDWFHGRHLGAIPPESGDFQEMVCQACMKRCSFLWAYAAQLAVTKISTEDDGLVRNIDGIGDQEVIKPENGEHQDSTLKEDVPEQGKDDVREVKVEQNSEPCAGSSSESDLQTVFKNESLNAESKSGCKLQELKAKQLIKKDTATYWPLNWRSKLCTCQDCMKMYGDLDVLFLTDEYDTVLAYENKGKIAQATDRSDPLMDTLSSMNRVQQVELICEYNDLKTELKDYLKRFADEGTVVKREDIQQFFEEFQSKKRRRVDGMQYYCS
2 | no binding | DNAJC9 (protein, UniProt Q8WXX5 1-260) MGLLDLCEEVFGTADLYRVLGVRREASDGEVRRGYHKVSLQVHPDRVGEGDKEDATRRFQILGKVYSVLSDREQRAVYDEQGTVDEDSPVLTQDRDWEAYWRLLFKKISLEDIQAFEKTYKGSEEELADIKQAYLDFKGDMDQIMESVLCVQYTEEPRIRNIIQQAIDAGEVPSYNAFVKESKQKMNARKRRAQEEAKEAEMSRKELGLDEGVDSLKAAIQSRQKDRQKEMDNFLAQMEAKYCKSSKGGGKKSALKKEKK
